Assay results reported in PubChem BioAssay AID212 (DTP/NCI, 2004).
The list is a part of this screen's results and no random one: it gathers tests that were run many times, whatever their T/C, doses with no T/C, and many T/C values between a quarter and a half above the control. Other doses and runs of a compound stand elsewhere. T/C: endpoint of the treated group in % of that of the vehicle group. Schedule codes are those of the source, read here as Q, the interval in days (D) or hours (H), X, the number of doses. Some entries were tested several times; their values stand side by side, smallest first. Some T/C values are followed by the survivors on the day toxicity was checked, most often the fifth; without a count, all were alive then. Some entries give survivors of the animals treated and no T/C: the source holds a T/C of zero for them, seemingly a mark for toxic or unscored doses. Counts of survivors are from the toxicity check (mostly the fifth day) where no day follows; animals may have died later.

Tested on: BDF1 mice, colon carcinoma 38 sc, T/C %
Assay: NCI In Vivo Anticancer Drug Screen. Data for tumor model Colon Carcinoma 38 (subcutaneous) in B6D2F1 (BDF1) mice
Conditions: for T/C: evaluated on day 20
Protocol: The antitumor activity of compounds was measured in mice bearing transplantable tumors. Survival or tumor size were measured and the results are expressed as the measurement made in the treated group (T) divided by the measurement made in the vehicle treated control group (C). The tumor model used in this assay is Colon Carcinoma 38 (subcutaneous) in B6D2F1 (BDF1) mice

[1] = T/C endpoint: median tumor weight (est.), dose: 25.0 mg/kg/injection, schedule: Q07DX002 (ip), vehicle: saline with Tween-80, higher T/C = larger tumour
[2] = T/C endpoint: median tumor weight (est.), dose: 50.0 mg/kg/injection, schedule: Q07DX002 (ip), vehicle: Klucel (hydroxypropylcellulose) (HPC), higher T/C = larger tumour

SMILES: O=C(Nc1cccc2c(OC(=O)C(Cl)Cl)c(N=Nc3ccc(S(=O)(=O)Nc4nccs4)cc3)cc(N=Nc3ccc(S(=O)(=O)Nc4nccs4)cc3)c12)C(Cl)Cl (tested in a mixture with another compound)
- survivor count (T/C endpoint: median tumor weight (est.), dose: 200.0 mg/kg/injection, schedule: Q07DX002 (ip), vehicle: saline with Tween-80, higher T/C = larger tumour): 1 of 10 on day 20

SMILES: Nc1ccc(S(=O)(=O)c2ccc(N)cc2)cc1
- T/C (T/C endpoint: median tumor weight (est.), dose: 56.0 mg/kg/injection, schedule: Q07DX002 (ip), vehicle: saline with Tween-80, higher T/C = larger tumour): 126 % of control

SMILES: BrC1CC(Br)c2c1c1c(c3c2C(Br)CC3Br)C(Br)CC1Br (stereo not drawn)
- T/C (T/C endpoint: median tumor weight (est.), dose: 12.5 mg/kg/injection, schedule: Q07DX002 (ip), vehicle: saline with Tween-80, higher T/C = larger tumour): 138 % of control
- T/C (T/C endpoint: median tumor weight (est.), dose: 100.0 mg/kg/injection, schedule: Q07DX002 (ip), vehicle: saline with Tween-80, higher T/C = larger tumour): 131 and 133 % of control

SMILES: NC(=O)c1[nH]nc(C2OC(CO)C(O)C2O)c1O (stereo not drawn)
- survivor count (T/C endpoint: median survival time, dose: 6.0 mg/kg/injection, schedule: Q04DX004 (ip), vehicle: saline, higher T/C = longer survival): 0 of 8 on day 93
- survivor count (T/C endpoint: median survival time, dose: 12.0 mg/kg/injection, schedule: Q04DX004 (ip), vehicle: saline, higher T/C = longer survival): 0 of 8 on day 93
- T/C (T/C endpoint: median tumor weight (est.), dose: 1.25 mg/kg/injection, schedule: Q07DX002 (ip), vehicle: saline, higher T/C = larger tumour): 130 % of control
- T/C (T/C endpoint: median tumor weight (est.), dose: 2.5 mg/kg/injection, schedule: Q07DX002 (ip), vehicle: saline, higher T/C = larger tumour): 141 % of control
- T/C (T/C endpoint: median tumor weight (est.), dose: 2.5 mg/kg/injection, schedule: Q07DX003 (ip), vehicle: saline, higher T/C = larger tumour): 141 % of control
- survivor count (T/C endpoint: median tumor weight (est.), dose: 20.0 mg/kg/injection, schedule: Q07DX002 (ip), vehicle: saline, higher T/C = larger tumour): 6 of 10 on day 20
- survivor count (T/C endpoint: median tumor weight (est.), dose: 40.0 mg/kg/injection, schedule: Q07DX002 (ip), vehicle: saline, higher T/C = larger tumour): 5 of 10 on day 20

SMILES: CCCCCCCCCCCCN1C(C)=CS/C1=C\C=C\c1scc(C)[n+]1CCCCCCCCCCCC
- T/C (T/C endpoint: median tumor weight (est.), dose: 1.56 mg/kg/injection, schedule: Q07DX002 (ip), vehicle: saline with Tween-80, higher T/C = larger tumour): 128 % of control
- T/C (T/C endpoint: median tumor weight (est.), dose: 3.13 mg/kg/injection, schedule: Q07DX002 (ip), vehicle: saline with Tween-80, higher T/C = larger tumour): 141 % of control
- T/C (T/C endpoint: median tumor weight (est.), dose: 6.25 mg/kg/injection, schedule: Q07DX002 (ip), vehicle: saline with Tween-80, higher T/C = larger tumour): 126 % of control [8 of 10 alive on day 20]
- survivor count [1]: 0 of 10 on day 20

SMILES: CC1OC(O[C@H]2C[C@](O)(C(C)O)Cc3c(O)c4c(c(O)c32)C(=O)c2c(O)cccc2C4=O)CC(NC=O)C1O (stereo partly drawn)
- survivor count (T/C endpoint: median tumor weight (est.), dose: 1.42 mg/kg/injection, schedule: Q07DX002 (ip), vehicle: distilled water + Tween-80, higher T/C = larger tumour): 4 of 10 on day 20
- survivor count (T/C endpoint: median tumor weight (est.), dose: 1.9 mg/kg/injection, schedule: Q07DX002 (ip), vehicle: distilled water + Tween-80, higher T/C = larger tumour): 5 of 10 on day 20
- survivor count (T/C endpoint: median tumor weight (est.), dose: 2.53 mg/kg/injection, schedule: Q07DX002 (ip), vehicle: distilled water + Tween-80, higher T/C = larger tumour): 6 of 10 on day 20
- survivor count (T/C endpoint: median tumor weight (est.), dose: 3.38 mg/kg/injection, schedule: Q07DX002 (ip), vehicle: distilled water + Tween-80, higher T/C = larger tumour): 0 of 10 on day 20
- survivor count (T/C endpoint: median tumor weight (est.), dose: 4.5 mg/kg/injection, schedule: Q07DX002 (ip), vehicle: distilled water + Tween-80, higher T/C = larger tumour): 0 of 10 on day 20
- survivor count (T/C endpoint: median tumor weight (est.), dose: 6.0 mg/kg/injection, schedule: Q07DX002 (ip), vehicle: distilled water + Tween-80, higher T/C = larger tumour): 0 of 10 on day 20

SMILES: NC(=O)c1csc(C2OC(CO)C(O)C2O)n1 (stereo not drawn)
- survivor count (T/C endpoint: median tumor weight (est.), dose: 50.0 mg/kg/injection, schedule: Q07DX002 (ip), vehicle: water, higher T/C = larger tumour): 4 of 10 on day 20
- T/C (T/C endpoint: median tumor weight (est.), dose: 800.0 mg/kg/injection, schedule: Q07DX002 (ip), vehicle: water, higher T/C = larger tumour): 130 % of control

SMILES: COC1C=CC23c4cc5c(cc4C(O)OC2CN(C)C3C1)OCO5 (stereo not drawn)
- survivor count (T/C endpoint: median tumor weight (est.), dose: 150.0 mg/kg/injection, schedule: Q07DX002 (ip), vehicle: suspension in saline, higher T/C = larger tumour): 1 of 10 on day 20

SMILES: CC1=CC(=NN=c2cc(C)n([O-])c(C)c2)C=C(C)[N+]1=O
- T/C (T/C endpoint: median tumor weight (est.), dose: 50.0 mg/kg/injection, schedule: Q07DX002 (ip), vehicle: suspension in saline, higher T/C = larger tumour): 137 % of control
- T/C (T/C endpoint: median tumor weight (est.), dose: 100.0 mg/kg/injection, schedule: Q07DX002 (ip), vehicle: saline, higher T/C = larger tumour): 127 % of control [9 of 10 alive on day 20]
- survivor count (T/C endpoint: median tumor weight (est.), dose: 800.0 mg/kg/injection, schedule: Q07DX002 (ip), vehicle: saline, higher T/C = larger tumour): 3 of 10 on day 20
- survivor count (T/C endpoint: median tumor weight (est.), dose: 800.0 mg/kg/injection, schedule: Q07DX002 (ip), vehicle: suspension in saline, higher T/C = larger tumour): 1 of 10 on day 20

SMILES: CC(=O)OC1=NC(C)c2c1cc(OC(C)=O)[nH]c2=O (stereo not drawn)
- T/C (T/C endpoint: median tumor weight (est.), dose: 12.5 mg/kg/injection, schedule: Q07DX002 (ip), vehicle: Klucel (hydroxypropylcellulose) (HPC), higher T/C = larger tumour): 135 % of control
- survivor count [2]: 5 of 8 on day 20
- survivor count (T/C endpoint: median tumor weight (est.), dose: 200.0 mg/kg/injection, schedule: Q07DX002 (ip), vehicle: Klucel (hydroxypropylcellulose) (HPC), higher T/C = larger tumour): 2 of 10 on day 20 and 4 of 10 on day 20
- survivor count (T/C endpoint: median tumor weight (est.), dose: 400.0 mg/kg/injection, schedule: Q07DX002 (ip), vehicle: Klucel (hydroxypropylcellulose) (HPC), higher T/C = larger tumour): 0 of 10 on day 20 and 1 of 10 on day 20

SMILES: CCNC(=O)[B-][N+](C)(C)C
- T/C [2]: 141 % of control
- survivor count (T/C endpoint: median tumor weight (est.), dose: 800.0 mg/kg/injection, schedule: Q07DX002 (ip), vehicle: Klucel (hydroxypropylcellulose) (HPC), higher T/C = larger tumour): 5 of 10 on day 20
- survivor count (T/C endpoint: median tumor weight (est.), dose: 1600.0 mg/kg/injection, schedule: Q07DX002 (ip), vehicle: Klucel (hydroxypropylcellulose) (HPC), higher T/C = larger tumour): 0 of 10 on day 20

SMILES: COc1c(O)c2c(c3cc(C(=O)N4CCc5c4c(O)c(OC)c4[nH]c(C(=O)N6CC7CC78C6=CC(=O)c6[nH]cc(C)c68)cc54)[nH]c13)CCN2C(N)=O (stereo not drawn)
- T/C (T/C endpoint: median tumor weight (est.), dose: 12.5 micrograms/kg/injection, schedule: Q07DX002 (ip), vehicle: DMSO, higher T/C = larger tumour): 134 % of control
- survivor count (T/C endpoint: median tumor weight (est.), dose: 100.0 micrograms/kg/injection, schedule: Q07DX002 (ip), vehicle: DMSO, higher T/C = larger tumour): 5 of 10 on day 20
- survivor count (T/C endpoint: median tumor weight (est.), dose: 200.0 micrograms/kg/injection, schedule: Q07DX002 (ip), vehicle: DMSO, higher T/C = larger tumour): 3 of 10 on day 20

SMILES: COC(C(=O)C(O)C(C)O)C1CC2C=C3C=C(OC4CC(OC5CC(O)C(OC)C(C)O5)C(OC(C)=O)C(C)O4)C(C)C(=O)C3=C(O)C2=C(O)C1OC1CC(OC2CC(OC3CC(C)(O)C(O)C(C)O3)C(O)C(C)O2)C(O)C(C)O1 (stereo not drawn)
- T/C (T/C endpoint: median tumor weight (est.), dose: 0.5 mg/kg/injection, schedule: Q07DX002 (ip), vehicle: saline with Tween-80, higher T/C = larger tumour): 131 % of control [9 of 10 alive on day 20]

SMILES: O=S(=O)(c1ccccc1)N1CN2CCN(C2)C1
- T/C [1]: 125 % of control
- T/C (T/C endpoint: median tumor weight (est.), dose: 50.0 mg/kg/injection, schedule: Q07DX002 (ip), vehicle: saline with Tween-80, higher T/C = larger tumour): 148 % of control [9 of 10 alive on day 20]

SMILES: CCCCOCN(COCCCC)C12CC3CC(CC(C3)C1)C2
- survivor count (T/C endpoint: median tumor weight (est.), dose: 400.0 mg/kg/injection, schedule: Q07DX002 (ip), vehicle: saline with Tween-80, higher T/C = larger tumour): 0 of 10 on day 20
- survivor count (T/C endpoint: median tumor weight (est.), dose: 800.0 mg/kg/injection, schedule: Q07DX002 (ip), vehicle: saline with Tween-80, higher T/C = larger tumour): 0 of 10 on day 20
